# Experimental data published in PubChem BioAssay AID540276 (National Center for Advancing Translational Sciences (NCATS), 2011).
# In all, about 300,000 compounds went through this assay and about 5,400 (1.8%) were called active. This list was built around the results that the source calls inconclusive (neither active nor inactive); the mix of calls is not that of the screen. The call rests on the fitted dose curve; tested in HEK293 cells. A potency beside an inconclusive call is a rough fit, not a confirmed value.
# Assay: qHTS for inhibitors of binding or entry into cells for Marburg Virus
# Settings: Marburg virus pseudotyped entry inhibition, cell reporter; series mostly up to 37.8 µM
# Potency means the concentration at half of the fitted maximal effect.
row,SMILES,Potency
1,CCOC(=O)C1=C(CNCc2ccc(Cl)cc2)NC(=O)NC1c1ccccc1 (stereo unspecified),inactive
2,CC(=O)c1sc2nsc(SCCN3CCCC3)c2c1N,"inconclusive: 35.5 µM [inhibitor, single point]"
3,COC(=O)NCC(c1ccco1)N1CCN(c2ccc(F)cc2)CC1 (stereo unspecified),inactive
4,N#Cc1ccc(Cl)cc1NC(=O)CSc1cccc[n+]1[O-],inactive
5,CN1CCN(CC(C)(C)NS(=O)(=O)c2ccc(Cl)cc2)CC1,"inconclusive: 29.1 µM [inhibitor, single point]"
6,CCCNC(=O)c1ccc(COc2ccc(C(C)(C)C)cc2)o1,"inconclusive: 5.01 µM [activator, partial curve, poor fit]"
7,NC(=O)CCC1NC(=S)N(Cc2ccccc2)C1=O (stereo unspecified),inactive
8,N#C/C(=C\c1ccc(O)c(O)c1)C(=O)NCCc1ccccc1,"inconclusive: 16.4 µM [activator, partial curve, poor fit]"
9,COc1ccc(C(=O)c2ccc(N(C)C)cc2)c2ccccc12,"inconclusive: 0.517 µM [inhibitor, full curve, poor fit]"
10,CC1=CC=CC2=NC(=O)CC(C)(C(=O)N(CC(=O)NC3CCCC3)c3ccc(F)cc3)N12 (stereo unspecified),"inconclusive: 6.31 µM [inhibitor, single point]"
11,CC(=O)c1cccc(NCC(=O)c2ccc(C)c([N+](=O)[O-])c2)c1,"inconclusive: 0.631 µM [inhibitor, full curve, poor fit]"
12,O=C(NCCCN1CCCC1)c1ccc(CSCc2cccc(Cl)c2)o1,"inconclusive: 18.3 µM [inhibitor, partial curve]"
13,COc1ccc(N(CC(O)CN2CCOCC2)S(=O)(=O)c2ccccc2)cc1 (stereo unspecified),inactive
14,O=[N+]([O-])/C=C/c1ccc2c(c1)OCO2,"inconclusive: 6.51 µM [inhibitor, full curve]"
15,CCOC(=O)Cc1csc(NC(=S)NC(=O)c2ccc(F)cc2)n1,inactive
16,Cc1cc(Cl)ccc1OCC(=O)NCCCN1CCOCC1,"inconclusive: 5.62 µM [activator, single point]"
17,CC(C)(C)Cc1nnc(NC(=O)Cc2cccs2)s1,"inconclusive: 35.5 µM [activator, partial curve, poor fit]"
18,COc1cccc(OCCn2cc(C(C)=O)c3ccccc32)c1,"inconclusive: 7.08 µM [inhibitor, full curve]"
19,Fc1cccc2sc(Nc3nnc(-c4ccccc4)o3)nc12,"inconclusive: 35.5 µM [inhibitor, single point]"
20,Cc1ccc(-n2nc3ccc(NC(=O)c4ccco4)cc3n2)cc1,inactive
21,CC1CCCCC1S(=O)C1=C(C(=O)O)CCCC1 (stereo unspecified),inactive
22,N#CC1(C#N)CC(C=O)=C(N)C1(C#N)CC(=O)C12CC3CC(CC(C3)C1)C2 (stereo unspecified),"inconclusive: 7.94 µM [inhibitor, partial curve, poor fit]"
23,Cc1ccc(OC(F)F)c(NC(=O)Nc2cccc(C(F)(F)F)c2)c1,"inconclusive: 20.6 µM [inhibitor, partial curve, poor fit]"
24,CCc1ccccc1-n1cnc2cc(C(=O)O)ccc21,"inconclusive: 7.08 µM [activator, partial curve, poor fit]"

row,SMILES,Potency
1,CCCCCCn1c(N2CCN(c3ccccc3)CC2)nc2c1c(=O)n(C)c(=O)n2C,"inconclusive: 29.1 µM [inhibitor, single point]"
2,COc1ccccc1NC(=O)NCC1CC1(Cl)Cl (stereo unspecified),inactive
3,O=C(Cc1cccs1)N1CCN(c2nc(-c3ccc(Cl)cc3)cs2)CC1,"inconclusive: 18.3 µM [inhibitor, single point]"
4,CN1CCN(c2nc(-c3ccccc3)nc(-c3ccc(F)cc3)c2C#N)CC1,active: 11.2 µM
5,C=CCNC(=O)c1c(N)n(-c2ccc3c(c2)OCO3)c2nc3ccccc3nc12,"inconclusive: 0.82 µM [inhibitor, full curve, poor fit]"
6,CCOc1cc(/C=N/NC(=O)N/N=C/c2ccc(O)c(OCC)c2)ccc1O,active: 7.08 µM
7,CCOC(=O)CCCCC(=O)N[C@@H](CO)C(=O)NC,"inconclusive: 2.51 µM [activator, single point]"
8,CCC1=[N+](C)CCn2c(C)ccc21,inactive
9,CCC(C)Cn1c(C(C)O)nc2ccccc21 (stereo unspecified),"inconclusive: 3.16 µM [inhibitor, partial curve, poor fit]"
10,CCOC(=O)C1(Cc2ccccc2)CCN(Cc2cc(OC)c3c(c2)OCO3)CC1,"inconclusive: 8.91 µM [inhibitor, partial curve, poor fit]"
11,Cc1ccc(S(=O)(=O)Cc2ccc(C(=O)OCc3ccccc3)cc2)cc1,inactive
12,CCn1nc(C)c(Br)c1-c1nc(-c2ccc(C)cc2)no1,inactive
13,CCC(=O)OC1(C(C)=O)CCC2C3CCC4=CC(=O)CCC4(C)C3CCC21C (stereo unspecified),"inconclusive: 15.8 µM [inhibitor, partial curve, poor fit]"
14,O=C(Nc1scc(-c2ccc(F)cc2)c1C(=O)O)c1ccco1,"inconclusive: 14.1 µM [inhibitor, single point]"
15,CCOC(=O)c1c(C)[nH]c(C(=O)CN2C(=O)NC(C)(c3ccc4ccccc4c3)C2=O)c1C (stereo unspecified),"inconclusive: 13 µM [inhibitor, partial curve]"
16,CCCn1cnc2c(SCc3ccccc3F)nc(N)nc21,"inconclusive: 7.94 µM [inhibitor, partial curve, poor fit]"
17,CCc1ccccc1NC(=S)/N=C(\N)Nc1nc(C)c2cc(C)ccc2n1,"inconclusive: 12.6 µM [inhibitor, single point]"
18,O=C(N/N=C\c1ccc(Sc2ccccn2)o1)c1cccc(F)c1,"inconclusive: 0.651 µM [inhibitor, full curve, poor fit]"
19,COc1nccnc1NS(=O)(=O)c1ccc(NC(=O)c2ccccc2Br)cc1,inactive
20,O=C(Nc1ccccc1F)c1cc(S(=O)(=O)N2CCOCC2)cs1,"inconclusive: 4.47 µM [inhibitor, single point]"
21,CCc1ccccc1NC(=O)c1noc(C(C)C)c1[N+](=O)[O-],inactive
22,COC(=O)c1cccc(NC(=O)C2COc3ccccc3O2)c1 (stereo unspecified),inactive
23,CCCCOc1ncnc2c1[nH]c1ccc(OCC)cc12,inactive
24,Cc1cc(C)c(C#N)c(SCc2cc3c(cc2Cl)OCO3)n1,"inconclusive: 29.1 µM [inhibitor, single point]"

# Four consecutive entries already listed, for reference:
row,SMILES,Potency
10,CC1=CC=CC2=NC(=O)CC(C)(C(=O)N(CC(=O)NC3CCCC3)c3ccc(F)cc3)N12 (stereo unspecified),"inconclusive: 6.31 µM [inhibitor, single point]"
11,CC(=O)c1cccc(NCC(=O)c2ccc(C)c([N+](=O)[O-])c2)c1,"inconclusive: 0.631 µM [inhibitor, full curve, poor fit]"
12,O=C(NCCCN1CCCC1)c1ccc(CSCc2cccc(Cl)c2)o1,"inconclusive: 18.3 µM [inhibitor, partial curve]"
13,COc1ccc(N(CC(O)CN2CCOCC2)S(=O)(=O)c2ccccc2)cc1 (stereo unspecified),inactive

# Further compounds:

row,SMILES,Potency
1,c1ccc(CSc2nnc(SCc3ccccn3)s2)nc1,"inconclusive: 23.1 µM [activator, single point]"
2,O=C(O)C1OC2OC3(CCCCC3)OC2C2OC3(CCCCC3)OC12 (stereo unspecified),inactive
3,O=C(Nc1cccc(Cl)c1)c1ccc2c(c1)SC1=NS(=O)(=O)CCN12,"inconclusive: 0.631 µM [inhibitor, full curve, poor fit]"
4,NNC(=S)NCc1cccnc1,"inconclusive: 1.26 µM [activator, single point]"
5,O=C1NC2(CCCCC2)C(=O)N1/N=C/c1ccc(O)cc1O,"inconclusive: 1.12 µM [activator, single point]"
6,CC1=NN(c2ccccc2)C(=O)/C1=C/c1cn(C)c2ccccc12,inactive
7,COc1ccc(S(=O)(=O)N(CCCN2CCCC2=O)Cc2cc3c(C)cc(C)cc3[nH]c2=O)cc1,"inconclusive: 1.26 µM [activator, single point]"
8,O=C(O)C1CSC(c2ccc(O)c([N+](=O)[O-])c2)N1 (stereo unspecified),"inconclusive: 35.5 µM [activator, single point]"
9,O=C(CS(=O)(=O)c1ccccc1)N1CCCCC1,inactive
10,O=C(COc1ccc(Cl)cc1Cl)N1CCCC1,inactive
11,O=C(CN(c1ccccn1)S(=O)(=O)c1ccc(F)cc1)Nc1ccccc1,"inconclusive: 3.16 µM [inhibitor, single point]"
12,O=C1Nc2c(c(=O)[nH]c(=O)n2-c2ccc(F)cc2)C1(NS(=O)(=O)c1ccc(Cl)cc1)C(F)(F)F (stereo unspecified),inactive
13,CN1C(=O)C(=Cc2sc(=O)n(-c3ccccc3)c2N(C)C)C(=O)N(C)C1=O,"inconclusive: 7.08 µM [inhibitor, partial curve, poor fit]"
14,Cn1cc(CCNCc2cn[nH]c2-c2ccc(-c3ccccc3)cc2)cn1,"inconclusive: 17.8 µM [inhibitor, partial curve, poor fit]"
15,Clc1ccc(-n2nnnc2-c2cnc3ccc(Cl)cc3c2-c2ccccc2)cc1,"inconclusive: 3.16 µM [inhibitor, single point]"
16,COc1ccc(NC(=O)c2cc([N+](=O)[O-])ccc2N2CCCCC2)cc1OC,"inconclusive: 1.41 µM [inhibitor, full curve, poor fit]"
17,Cn1nnnc1SCCCNCc1cc(Cl)ccc1OCc1ccccc1,"inconclusive: 11.2 µM [inhibitor, partial curve, poor fit]"
18,CNC(=O)c1cc(Nc2nnc(C)c3ccccc23)ccc1OC,inactive
19,Cn1ncc(Cl)c(Oc2ccc(C(C)(C)C)cc2)c1=O,"inconclusive: 0.112 µM [inhibitor, full curve, poor fit]"
20,COc1ccc(OCCCn2c(C)nc3cc(C)c(C)cc32)cc1,"inconclusive: 1.78 µM [inhibitor, full curve, poor fit]"
21,CCOC(=O)c1c(NC(=O)COc2cccc3c2CCN(CC)C3=O)sc2c1CCC2,"inconclusive: 0.184 µM [inhibitor, single point]"
22,CCOC(=O)c1sc(NC(=O)Nc2ccc(Cl)cc2)cc1C,"inconclusive: 35.5 µM [inhibitor, single point]"
23,CCC1=C(c2ccc(C)cc2)S(=O)(=O)N=C1N1CCC(C(=O)NCCc2cccc(OC)c2)CC1,"inconclusive: 22.4 µM [inhibitor, single point]"
